These results are taken from patent US7947280B2 (priority 2003, dated 2011).

Chains of the proteins cited; added tags and fusions are not shown.
UniProt P35414: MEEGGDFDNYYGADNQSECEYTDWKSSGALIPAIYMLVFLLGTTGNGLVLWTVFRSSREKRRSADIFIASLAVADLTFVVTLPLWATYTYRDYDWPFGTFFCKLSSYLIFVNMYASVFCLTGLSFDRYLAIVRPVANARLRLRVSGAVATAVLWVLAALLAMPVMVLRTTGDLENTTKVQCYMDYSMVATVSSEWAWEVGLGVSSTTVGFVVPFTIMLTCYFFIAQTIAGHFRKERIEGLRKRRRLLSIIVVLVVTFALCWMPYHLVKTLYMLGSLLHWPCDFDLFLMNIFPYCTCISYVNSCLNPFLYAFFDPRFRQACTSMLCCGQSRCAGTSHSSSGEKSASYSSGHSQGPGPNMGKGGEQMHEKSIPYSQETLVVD

The assay concerns the target APJ receptor tagged with hemagluttinin (HA) peptide (UniProt P35414). The assay can be described thus: anti-HA immunoblot after anti-GFP immunoprecipitation, transfected HEK-293 cells. (In general: Immunoblotting shows a protein as a band on a membrane.)

Results are given in words; binding and its absence hold for the method and conditions named. Some results given as binding are weak or reduced against the parent protein; the word gives no strength.

For “APJ receptor tagged with hemagluttinin (HA) peptide (from UniProt P35414 1-380)”, the binding result is “binds”.
